# Data from US20070184503A1 (published 2007).
# T1: human leucine-rich alpha-2-glycoprotein-1 (LRG) (human, UniProt P02750 36-347, one galactosamine and four glucosamine oligosaccharides attached; two intrachain disulfide bonds)
# T1 construct: Purified from human serum or plasma by adsorption on horse Cyt c-Affi-Gel 10; The leader is boxed in a drawing that is not readable; also called human LRG
# T1 sequence: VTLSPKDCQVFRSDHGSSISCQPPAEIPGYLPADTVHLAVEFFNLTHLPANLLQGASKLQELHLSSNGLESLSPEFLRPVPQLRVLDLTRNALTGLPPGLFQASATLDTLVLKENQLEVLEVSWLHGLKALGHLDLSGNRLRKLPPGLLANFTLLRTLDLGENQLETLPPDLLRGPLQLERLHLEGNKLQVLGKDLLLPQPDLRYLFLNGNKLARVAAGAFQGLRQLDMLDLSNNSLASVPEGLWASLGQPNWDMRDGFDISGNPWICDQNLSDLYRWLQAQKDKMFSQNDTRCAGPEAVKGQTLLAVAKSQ
# B1: horse Cytochrome c (Cyt c) (other, UniProt P00004 2-105, looked up)
# chain: GDVEKGKKIFVQKCAQCHTVEKGGKHKTGPNLHGLFGRKTGQAPGFTYTDANKNKGITWKEETLMEYLENPKKYIPGTKMIFAGIKKKTEREDLIAYLKKATNE
# notes: Used coupled to Affi-Gel 10, adsorbed to microtiter plates, and in solution; also called horse Cyt c; Cyt c-Affi-Gel 10
# B2: human Cytochrome c (Cyt c) (other)
# chain: GDVEKGKKIFIMKCSQCHTVEKGGKHKTGPNLHGLFGRKTGQAPGYSYTAANKNKGIIWGEDTLMEYLENPKKYIPGTKMIFVGIKKKEERADLIAYLKKATNE
# modifications: acetylated amino terminal glycine; heme prosthetic group bound through cysteines at positions 14 and 17 of the mature protein (15 and 18 of SEQ ID NO: 4)
# notes: Obtained from R & D Systems; The mature form lacks the leading methionine and has 104 residues; also called human Cyt c
# B3: pigeon Cytochrome c (Cyt c) (other, UniProt P00021 2-105, looked up)
# chain: GDIEKGKKIFVQKCSQCHTVEKGGKHKTGPNLHGLFGRKTGQAEGFSYTDANKNKGITWGEDTLMEYLENPKKYIPGTKMIFAGIKKKAERADLIAYLKQATAK
# notes: also called a bird (pigeon) Cyt c
# Target: T1, human leucine-rich …
# Assay: Competitive ELISA: solution Cyt c competes with plate-bound horse Cyt c for human LRG
# Description: Horse Cyt c was adsorbed to a microtiter plate and increasing concentrations of Cyt c from various species present in the solution phase were allowed to compete with the plate-bound Cyt c for human LRG binding. Otherwise, the assay was performed in accordance with the procedures described in Example 1.
row,binding result,Binder
1,binds,B1
2,binds,B2
3,binds,B3
